Consider 21 sequences from patent publication US9655377, “Methods of controlling fructan synthesis in plants” (COMMONWEALTH SCIENTIFIC AND INDUSTRIAL RESEARCH ORGANISATION).

For part of these data: The comparison behind a weaker result is the experiment's own reference, which may not be listed here. Tags and fusion partners may be left off the protein sequences shown. For part of these data: Construct, isoform or probe ends are uncertain for at least one entry.

The subject of the first series is T1, TaMYB13-1 (correctly spliced form) (Triticum aestivum).
T1 sequence (limits assumed): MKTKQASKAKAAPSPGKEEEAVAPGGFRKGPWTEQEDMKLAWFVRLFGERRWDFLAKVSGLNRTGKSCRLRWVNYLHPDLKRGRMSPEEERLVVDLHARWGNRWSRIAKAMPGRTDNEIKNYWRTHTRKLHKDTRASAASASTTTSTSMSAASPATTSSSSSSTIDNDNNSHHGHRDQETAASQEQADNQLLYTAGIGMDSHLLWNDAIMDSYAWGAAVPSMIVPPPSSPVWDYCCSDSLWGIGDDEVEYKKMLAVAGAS
In words: SELEX. The settings on record: verified in DNA-binding assay; purified recombinant protein; label: biotin.
As to “ACACCTACACCTACTTTAATTAGGTATCGA (double strand) [selected oligonucleotide (FIG. 9, 14th)]”, the selection result is reported as “selected”.

Turning to “ACACCTGACCTAGAATATTAGGTTGGACGA (double strand) [selected oligonucleotide (FIG. 9, 8th)]”, the selection result was “selected”.

With “ACCATACCTAACAAATTAGGTACGTCGGGC (double strand) [selected oligonucleotide (FIG. 9, 11th)]”, the selection result is “selected”.

For “CCGTTAGGTCCTGGCTTCCACTAACGTCTA (double strand) [selected oligonucleotide (FIG. 9, 12th)]”, the selection result is on record as “selected”.

Turning to “CCTACCCAACTTATTGTTAGGTACACCTAG (double strand) [selected oligonucleotide (FIG. 9, 9th)]”, the selection result is given as “selected”.

On to “CGAGTTAGGTAACTTTACCTTACGGGCGTA (double strand) [selected oligonucleotide (FIG. 9, 3rd)]”, for which the selection result is “selected”.

For the sequence “CTGATCATACCAAACTTTATTCGGTAGAGC (double strand) [selected oligonucleotide (FIG. 9, 16th)]”, the selection result is given as “selected”.

Take “GATGTTGCTATTTTTTGGTTTGTACCTGTC (double strand) [selected oligonucleotide (FIG. 9, 5th)]”: the selection result is on record as “selected”.

Take “GGAAATGAAACCTAACAAAGTTAGGTAAGA (double strand) [selected oligonucleotide (FIG. 9, 10th)]”: the selection result was “selected”.

In the case of “GGGGTTAGGTACGCCCCACCCACCTACCCG (double strand) [selected oligonucleotide (FIG. 9, 13th)]”, the selection result is given as “selected”.

Consider “TAGGTGTACCTAACAATAAGTTAGGTAGCT (double strand) [selected oligonucleotide (FIG. 9, 4th)]”, for which the selection result is given as “selected”.

“TATCCAACTTATTTTTAGGTACATTTAGGA (double strand) [selected oligonucleotide (FIG. 9, 17th)]”: the selection result is reported as “selected”.

Turning to “TCAGATGCGACCTAATAAAGTTAGGTAGGG (double strand) [selected oligonucleotide (FIG. 9, 7th)]”, the selection result is recorded as “selected”.

Turning to “TCGACCGAATAAAGTTTGGTATGATGTGCT (double strand) [selected oligonucleotide (FIG. 9, 2nd)]”, the selection result is “selected”.

“TCGGTGTACCTAACAATAAGTTAGGTAGA (double strand) [selected oligonucleotide (FIG. 9, 15th)]”: the selection result was “selected”.

Take “TGTAGGATGGACCGAACAAATTAGGTCATA (double strand) [selected oligonucleotide (FIG. 9, 6th)]”: the selection result is reported as “selected”.

As for “TTACGAGGAAGTTAGGTTCGACCTAACGCA (double strand) [selected oligonucleotide (FIG. 9, 1st)]”, the selection result is listed as “selected”.

The next series shares this test system. Kind of series: binding assay. The settings on record: lower affinity than Ta1-SST S2; assayed oligonucleotide may be longer; purified recombinant protein.
Consider “GCATTAGGTTC (double strand) [Ta1-SST S1 site]”, for which the binding result is recorded as “binds more weakly”.

The series is the same for the next values; noted with them: relative to SynO2m14; only slight competition against SynO2m14; purified recombinant protein; label: biotin.
For the sequence “TCGAGGGAATAAAGTTAGTTATGATGT (double strand) [MYB.Ph3-II]”, the binding result is recorded as “binds more weakly”.

For “TCGAGGGAATTATAACGGTTTTTTGAT (double strand) [MRE2]”, the binding result is “binds more weakly”.

For a further series, the system named is T2, TaMYB13-1 (correctly spliced form, effector) (Triticum aestivum).
T2 sequence (limits assumed): T1 sequence (limits assumed)
In words: activity in cells. The settings on record: duplicated site added to Ta6-SFT1SXR-deltaS1S2, dramatic increase in transactivation; protein in cells; only the site is given.
“TATGTTAGGTAC (double strand) [Hv6-SFT S1 site]”: the “activity on this sequence” value was “active”.
